# Test results published in publication PMC4862318.
# Results are given in words; binding and its absence hold for the method and conditions named. Some results given as binding are weak or reduced against the parent protein; the word gives no strength.
# T1: OsHOX22ΔC (C-terminal deletion construct of OsHOX22, 1–173 aa) (rice) (UniProt Q7XUJ5)
# T1 sequence: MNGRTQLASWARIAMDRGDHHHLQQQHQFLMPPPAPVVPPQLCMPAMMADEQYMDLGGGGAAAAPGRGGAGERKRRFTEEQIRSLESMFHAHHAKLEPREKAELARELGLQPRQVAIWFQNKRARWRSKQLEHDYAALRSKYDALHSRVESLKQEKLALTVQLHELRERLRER
# T2: OsHOX24ΔC (C-terminal deletion construct of OsHOX24, 1–164 aa) (rice) (UniProt Q6H6S3)
# T2 sequence: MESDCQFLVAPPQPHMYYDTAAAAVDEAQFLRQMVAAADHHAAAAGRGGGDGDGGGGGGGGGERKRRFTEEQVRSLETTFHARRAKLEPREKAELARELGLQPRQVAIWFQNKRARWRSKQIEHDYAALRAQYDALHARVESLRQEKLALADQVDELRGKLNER
# B1: OsHOX24 full-length (protein, UniProt Q6H6S3 1-261)
# chain: MESDCQFLVAPPQPHMYYDTAAAAVDEAQFLRQMVAAADHHAAAAGRGGGDGDGGGGGGGGGERKRRFTEEQVRSLETTFHARRAKLEPREKAELARELGLQPRQVAIWFQNKRARWRSKQIEHDYAALRAQYDALHARVESLRQEKLALADQVDELRGKLNERQDQSGSCDGGGAEGDDDDKRNSVMNASSSGLVEEDYVSCLAVPVVDVSEDGSAACGGSSYEYDHHLDYLGGGQLPDPFCGMPDLWEIWPMVEWNAVA
# B2: OsHOX22 full-length (protein, UniProt Q7XUJ5 1-276)
# chain: MNGRTQLASWARIAMDRGDHHHLQQQHQFLMPPPAPVVPPQLCMPAMMADEQYMDLGGGGAAAAPGRGGAGERKRRFTEEQIRSLESMFHAHHAKLEPREKAELARELGLQPRQVAIWFQNKRARWRSKQLEHDYAALRSKYDALHSRVESLKQEKLALTVQLHELRERLREREERSGNGGAATTAASSSSCNGSGSEEVDDDDDKRNAAAGCLDLEPPESCVLGGATCATPADVSVESDQCDDQLDYDEGLFPESFCATPELWEPWPLVEWNAVA
# B3: OsHOX24ΔC (C-terminal deletion construct of OsHOX24, 1–164 aa) (domain or fragment, UniProt Q6H6S3 1-164)
# chain: T2 sequence
# B4: OsHOX22ΔC (C-terminal deletion construct of OsHOX22, 1–173 aa) (domain or fragment, UniProt Q7XUJ5 1-173)
# chain: T1 sequence
# Target: T1, OsHOX22ΔC (C-terminal deletion construct of OsHOX22, 1–173 aa) (rice)
# Assay: two-hybrid; GAL4 system in yeast AH109; bait pGBKT7 with the truncated (ΔC) ORF co-transformed with prey pGADT7 with full-length or truncated ORF; growth on SD-Trp-Leu and SD-Trp-Leu-His-Ade, 30°C, 3–5 days
row,Binder,binding
1,B1,binds
2,B2,binds
3,B3,binds
4,B4,binds

# Target: T2, OsHOX24ΔC (C-terminal deletion construct of OsHOX24, 1–164 aa) (rice)
# Assay: as above
row,Binder,binding
1,B1,binds
2,B2,binds
3,B3,binds
4,B4,binds
